Assay results reported in publication PMC12579105.
These are yes or no findings as the source states them, for the method shown. Binding seen in cells or lysates may run through a third protein. These calls come from enrichment with a bait or labelling near it, and not all partners need be listed. No binding means not detected with the bait. Sequences can lack the tags named with a protein.

Target: 4xmyc-ING2 (INHIBITOR OF GROWTH 2) (Arabidopsis thaliana)
Assay: affinity purification with mass spectrometry; 4xmyc-ING2 captured with anti-myc microbeads (1 h, 4 °C) from extracts of 12 day-old seedlings grown under LD at 22 °C; extraction buffer 20 mM TrisHCl pH 8, 150 mM NaCl, 2.5 mM EDTA, 33 mM β-mercaptoethanol, 10% glycerol, 0.5% Triton X-100; LC-MS/MS; two biological replicates, control purification from WT

Row | Binder | binding
1 | Enhancer of polycomb-like protein 1 (EPL1A) (protein, UniProt Q9FX82 1-439) MSRLSFRPRPLDIHKKLPILKSFKDFEDEDNPSSITRNSQLLRISAVEVVDNEVQPPVPSKKLISEIPTPQYLVVDTYERDYSRTFNQPASYLRARGARAELGEFVEYDLDNDDDDWLYEYNKETMILSPEMLEIVIFKLEVLDHKARERAGVITPTLGLPVPVLLQPDAAGEALKYLSIKYGVFHAIYSYWKNKREIWQKPILRRLQPPPPVNDTNPYNVFRPREKAHRLHARRMQQRENNAQSFEKLRQVRRNLDQAKTILEALIKREEKKRDFMASEVSLQRIQLKYKNETELLEDSLALAGFPLSTAYRFGSSEDEFMDSDDPTTTQTCTRPSFTPHRRFTDSNLARAQAGSIKQEARRLGWLHKLNPNEPVMLFTKALVPDKLAAAGIIPPSDARSGRARFQGRMGRGGRIVFDRWNPLNQAHINCGNTLYIAP | binds
2 | HAM1 (Histone acetyltransferase) (enzyme, UniProt Q9FLF7 1-445) MGSSADTETAMIIATPASNHNNPATNGGDANQNHTSGAILALTNSESDASKKRRMGVLPLEVGTRVMCQWRDGKYHPVKVIERRKNYNGGHNDYEYYVHYTEFNRRLDEWIKLEQLDLDSVECALDEKVEDKVTSLKMTRHQKRKIDETHVEGHEELDAASLREHEEFTKVKNIATIELGKYEIETWYFSPFPPEYNDCVKLFFCEFCLSFMKRKEQLQRHMRKCDLKHPPGDEIYRSSTLSMFEVDGKKNKVYAQNLCYLAKLFLDHKTLYYDVDLFLFYILCECDDRGCHMVGYFSKEKHSEEAYNLACILTLPPYQRKGYGKFLIAFSYELSKKEGKVGTPERPLSDLGLVSYRGYWTRILLDILKKHKGNISIKELSDMTAIKAEDILSTLQSLELIQYRKGQHVICADPKVLDRHLKAAGRGGLDVDVSKMIWTPYKEQS | binds
3 | Enhancer of polycomb-like protein 1 (EPL1B) (protein, UniProt Q8GYQ9 1-453) MSRLSFRPRPLDIHKKLPILKSFKDFEDDETPTSTTRNSQLLRIASVEVDNEVAPVPSKKPASEIPTPQFVIVDTYERDYSPTFGQPASYLRARGARSELGEFVEYDLDNEDEDWLYEFDKDKKELPPEKLEIIIFKLEVLDHKTRERAGVITPTLGSPVPVLLQFDAASDVLQVLSINYGTFQAIFNYWKEKRKRWQKPILRRLQPPPPVNDTNPYNVFRPREKVHRLHTRRMQRRENNVQSFEKLRQVRRNLGQAQSILEALIKREEKKRDVMDSEVSLQRIQLQYRHETELLEDSLAMPGFQPTTTSYKFGSSDDELMDSDDHTSTRVRTRPAVIPSSRFTNLNLNASHPGGIKQEVRRRQSQHGWLHRLDPNEPVMLFTKPLVPDKLAAAGIVPPTPDSSPGQPPSRFQGRIGRGGRIIFDRWNPLMQSHINCGNSYYIAPNHRSTNFD | binds
4 | Actin-related protein 4 (protein, UniProt Q84M92 1-441) MYGGDEVSAIVVDLGSHTCKAGYAGEDAPKAVFPSVIGAVDGVEAMDVDVDSTKTNSNSEDSKTESEKEKSKRKLYVGSQAMSYRRDHMEVLSPIKDGIVSDWDLVDNIWEHAFKSCLMIDPTEHPMLLAEPPLNTQQQREKAAELMFEKYKVPALFMAKNPVLTSFATGRATSLVVDCGGGSTTISPVHDGYVLQKAVVSSPLGGEFLTDCLLKSLESKGIKIRPRYSFKRKEVRAGEFQVEDVDIPDTTESYKLFCQRMIVGDIKDSICRVPDTPYDDKSYSNIPTTSYELPDGQTLEIGADRFKVPDVMFNPSIVQTIPGMEKYAEMIPSVRGLPHMVMESINKCDVDIRRELYSSILLAGGTSSMQQLKERLEKDLIEESPHSARVKVLASGNTTERRFSVWIGGSILASLGSFQQMWFSKSEYEEHGASYIQRKCP | binds

Further lines, results first:

Row | binding | Binder
5 | binds | SWC4 (myb-like transcription factor family protein) (protein, UniProt Q8VZL6 1-441) MGGTDAKDILGLPKTPLSLTQEKKSRPQKESHRKPDGISREVYALTGGVAPLMPSIDLKRRPPADEKVAWKWLSFTNSARKDDLQLYHWVRVVNDVPPTGDYSFAKYNKSVDILKYTDEEYENHLTDSVWTKEETDQLFEFCQNFDLRFVVIADRFPVSRTVEELKDRYYSVNRALLRARAQSPADVANHPLMKEPYDITRDRERKRALSMVLSQSRHQEKKDAEILAEAKRITEMRLAARRAEEPDVSANENAGLDKADGVVPGRSVSPTSNSQLPATAVAPSTLTMADYASTLASLRMLHVYLRTYGLEQMVQAASSAVGLRTIKRVEQTLQDLGVNLKPKVPTKTVCDEHLELRKEILTLLNLQKQLQYKESEGSSHREGSYAAMPDTPKDRVFAPDPFSFGAERPIKKEQKRKGPGRQADTPSPAHKRPRKLKASDL
6 | no binding | SHORT LIFE (protein, UniProt Q9FEN9 1-228) MPKQKAPRKQLKSYKLKHINKSIQEGDAVLMRSSEPGKPSYVARVEAIETDARGSHAKVRVRWYYRPEESIGGRRQFHGAKEVFLSDHFDFQSADTIEGKCKVHSFSSYTKLDSVGNDDFFCRFEYNSTTGAFDPDRVTVFCKCEMPYNPDDLMVQCEECSEWFHPSCIGTTIEEAKKPDNFYCEECSPQQQNLHNSNSTSNNRDAKVNGKRSLEVTKSKNKHTKRPG
7 | binds | YAF9A (Transcription initiation factor TFIID subunit 14b) (protein, UniProt Q9FH40 1-268) MTNSSSSKKQAQDQPETSEPTLKSLKTKMTKSDEKQKKLKDIEISVPIVYGNVAFWLGKKASEYQSHKWAVYVRGATNEDISVVVKKVVFQLHSSFNSPTRVIEEPPFEVSESGWGEFEIAMTLHFHSDVCDKPLSLYHHLKLYPEDESGPLTMKKPVVVESYDEIVFPDPSESFLARVQNHPALTFPRLPSGYNLPAPMQVEDTGKKKRGDTKDHSLGQWFMSFSEADELLQLAAARQQVQAHIAKLRRQISLLEGQNQTVKTGSDL
